US5416076A, “S-adenosyl methionine decarboxylase inhibitors” (Merrell Dow Pharmaceuticals Inc., priority 1989, dated 1995)
At least one compound was matched to its structure with a doubt left.

Sequences of proteins named here, by UniProt entry; tags and fusion partners are left off. Residues count along the entry.
UniProt P17708, 1-67: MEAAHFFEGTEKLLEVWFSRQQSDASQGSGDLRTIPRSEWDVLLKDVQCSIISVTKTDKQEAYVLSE
UniProt P17708, 68-333: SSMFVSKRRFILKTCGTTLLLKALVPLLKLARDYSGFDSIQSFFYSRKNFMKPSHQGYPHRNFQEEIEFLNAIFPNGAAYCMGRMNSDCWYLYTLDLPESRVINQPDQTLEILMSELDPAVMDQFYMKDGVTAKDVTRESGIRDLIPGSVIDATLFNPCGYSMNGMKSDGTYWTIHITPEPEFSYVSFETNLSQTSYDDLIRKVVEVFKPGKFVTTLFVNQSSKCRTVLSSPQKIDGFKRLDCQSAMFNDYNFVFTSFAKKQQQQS

Target: T1, rat liver Ado Met DC (Rattus norvegicus, UniProt P17708)
T1 construct: from tissue; host or cells: rat liver
Experiment: in vitro inactivation of rat liver Ado Met DC
Type: biochemical

**Q.** Which results are given for CN(C/C=C\CN)C[C@H]1O[C@@H](n2cnc3c(N)ncnc32)[C@H](O)[C@@H]1O [MDL Compound, CIS-5'-DEOXY-5'(4-AMINO-2-BUTENYL)METHYLAMINOADENOSINE]?
**A.** t1/2 of inactivation of Ado Met DC (0.1 μM): 16 min; t1/2 of inactivation of Ado Met DC (1 μM): 1.6 min; t1/2 of inactivation of Ado Met DC (2 μM): 0.8 min
